Results are given in words; binding and its absence hold for the method and conditions named. Binding can be weak; no strength is given. Sequences can lack the tags named with a protein.
Target: B. subtilis RF2-GGP (catalytically inactive GGP mutant of release factor 2) (B. subtilis)
Assay: cryo-EM structure; B. subtilis BrfA62-His6 and RF2-GGP in 10x excess incubated 5 min at 37 °C with the purified E. coli non-stop 70S ribosome complex (ns70S, truncated nlpD mRNA); both proteins bound on the ribosome; 3.06 Å; both purified

B1: BrfA62-His6 (Bacillus ribosome rescue factor A, formerly YqkK, residues 1-62) (protein, UniProt P54573 1-62)
chain: MAKSQAKKKRGHRLRNGGRDVLLSRGSTPSFSTHGRMTKSKKEILNKRKHKNPYDHTAVDDK
Q: With B1 as the binder, how does the binding read?
A: binds
